# This list was built around the results that the source calls inconclusive (neither active nor inactive); the mix of calls is not that of the screen. A potency beside an inconclusive call is a rough fit, not a confirmed value. Active and inactive are the calls of the source. Calls come from the whole dose curve; as a rule, active = well fitted cell-killing curve with a large enough effect; inconclusive = small, poorly fitted or top-dose-only effect, or effect the other way; inactive = no such curve, though single readings can be large or run the other way.
# Tested on: Jar
# Assay: Confirmatory qHTS for gynecologic anti-cancer compounds from libraries of approved drugs and bioactive compounds; note: nearly all actives have a fitted effect of over 55% in size
# Details: gynecologic cancer cell panel viability, ATPlite luminescence, 48 h; series mostly up to 57.6 µM
# In short: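 Seeding 1,000 cells per well preceded overnight (16 h) attachment, after which 48 h drug treatment across 57.5 uM–0.977 nM (11 points) was applied. Remaining cellular ATP, detected by ATPlite luminescence, defined IC50.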
# Potency is the fitted concentration of half-maximal effect.
row,Structure (SMILES),Potency
1,CC(=O)OC12COC1CC(O)C1(C)C(=O)C(O)C3=C(C)C(OC(=O)C(O)C(NC(=O)OC(C)(C)C)c4ccccc4)CC(O)(C(OC(=O)c4ccccc4)C21)C3(C)C (stereo not given),active: 0.0432 µM
2,CN(C)C(CCOc1cccc2ccccc12)c1ccccc1 (stereo not given),inactive
3,CC(C)CC(=O)Nc1n[nH]c2c1CN(C(=O)C1CCN(C)CC1)C2(C)C,"inconclusive: 27.3 µM [rising, single point]"
4,CNC(=O)CN1CCC(Oc2cc3c(Nc4cccc(Cl)c4F)ncnc3cc2OC)CC1,"inconclusive: 24.3 µM [cytotoxic, partial curve, poor fit]"
5,COc1ccc(CCC(=O)c2c(O)cc(O[C@@H]3O[C@H](CO)[C@@H](O)[C@H](O)[C@H]3O[C@@H]3O[C@@H](C)[C@H](O)[C@@H](O)[C@H]3O)cc2O)cc1O,inactive
6,O=C(NCC(O)CO)c1ccncc1Nc1ccc(I)cc1F (stereo not given),"inconclusive: 4.32 µM [rising, full curve, poor fit]"
7,COc1ccccc1N1CCN(CC(O)COc2cccc3ccccc23)CC1 (stereo not given),inactive
8,OCc1ccc(-c2ccc(-c3ccc(CO)s3)o2)s1,"inconclusive: 0.0027 µM [rising, full curve]"
9,CS(=O)(=O)c1ccc(C(=O)Nc2ccc(Cl)c(-c3ccccn3)c2)c(Cl)c1,"inconclusive: 2.43 µM [rising, partial curve, poor fit]"
10,Cc1ccc2nc(N)[nH]c(=O)c2c1Sc1ccncc1,"inconclusive: 27.3 µM [cytotoxic, partial curve, poor fit]"
